# Source: PubChem BioAssay (EPA / NIEHS)
# By UniProt entry, the sequences of proteins in these tests, tags left out. Where a name states a change or a piece, a line headed by the entry shows the natural chain unless it says otherwise.
# UniProt P49146, whole entry, looked up: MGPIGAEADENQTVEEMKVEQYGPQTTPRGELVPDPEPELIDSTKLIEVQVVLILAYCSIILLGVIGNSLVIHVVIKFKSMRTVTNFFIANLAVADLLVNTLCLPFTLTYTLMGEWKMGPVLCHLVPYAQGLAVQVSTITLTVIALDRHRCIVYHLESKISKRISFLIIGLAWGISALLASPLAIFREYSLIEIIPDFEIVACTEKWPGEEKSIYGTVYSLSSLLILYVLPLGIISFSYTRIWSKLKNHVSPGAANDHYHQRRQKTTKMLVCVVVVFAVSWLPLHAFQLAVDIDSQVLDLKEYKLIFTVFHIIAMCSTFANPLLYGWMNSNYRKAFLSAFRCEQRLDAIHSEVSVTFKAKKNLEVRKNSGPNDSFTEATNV
# UniProt P10275: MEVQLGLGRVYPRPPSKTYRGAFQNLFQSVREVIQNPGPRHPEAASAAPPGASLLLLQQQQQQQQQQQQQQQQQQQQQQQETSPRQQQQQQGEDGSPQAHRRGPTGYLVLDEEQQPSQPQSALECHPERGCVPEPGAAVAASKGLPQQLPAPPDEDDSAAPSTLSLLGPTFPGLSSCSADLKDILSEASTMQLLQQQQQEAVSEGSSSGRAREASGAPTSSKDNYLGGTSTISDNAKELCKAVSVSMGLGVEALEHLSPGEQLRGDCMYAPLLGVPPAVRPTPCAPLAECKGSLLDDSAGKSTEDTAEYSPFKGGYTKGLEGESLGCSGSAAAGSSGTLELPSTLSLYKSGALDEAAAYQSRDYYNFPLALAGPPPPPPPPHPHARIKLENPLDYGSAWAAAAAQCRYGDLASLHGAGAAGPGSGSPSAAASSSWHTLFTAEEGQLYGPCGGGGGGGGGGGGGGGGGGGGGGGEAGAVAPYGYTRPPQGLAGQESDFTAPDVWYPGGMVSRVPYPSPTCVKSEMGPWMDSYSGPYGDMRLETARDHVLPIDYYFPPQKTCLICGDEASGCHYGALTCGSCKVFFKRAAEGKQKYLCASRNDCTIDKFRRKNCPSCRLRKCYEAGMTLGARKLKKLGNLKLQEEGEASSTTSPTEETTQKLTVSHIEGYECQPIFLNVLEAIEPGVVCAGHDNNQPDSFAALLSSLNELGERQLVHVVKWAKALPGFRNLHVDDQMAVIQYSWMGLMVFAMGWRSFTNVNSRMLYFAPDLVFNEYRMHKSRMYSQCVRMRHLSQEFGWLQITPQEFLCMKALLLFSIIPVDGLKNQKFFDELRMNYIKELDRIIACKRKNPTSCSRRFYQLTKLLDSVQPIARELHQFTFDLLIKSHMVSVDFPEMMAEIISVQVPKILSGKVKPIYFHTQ
# UniProt P04150: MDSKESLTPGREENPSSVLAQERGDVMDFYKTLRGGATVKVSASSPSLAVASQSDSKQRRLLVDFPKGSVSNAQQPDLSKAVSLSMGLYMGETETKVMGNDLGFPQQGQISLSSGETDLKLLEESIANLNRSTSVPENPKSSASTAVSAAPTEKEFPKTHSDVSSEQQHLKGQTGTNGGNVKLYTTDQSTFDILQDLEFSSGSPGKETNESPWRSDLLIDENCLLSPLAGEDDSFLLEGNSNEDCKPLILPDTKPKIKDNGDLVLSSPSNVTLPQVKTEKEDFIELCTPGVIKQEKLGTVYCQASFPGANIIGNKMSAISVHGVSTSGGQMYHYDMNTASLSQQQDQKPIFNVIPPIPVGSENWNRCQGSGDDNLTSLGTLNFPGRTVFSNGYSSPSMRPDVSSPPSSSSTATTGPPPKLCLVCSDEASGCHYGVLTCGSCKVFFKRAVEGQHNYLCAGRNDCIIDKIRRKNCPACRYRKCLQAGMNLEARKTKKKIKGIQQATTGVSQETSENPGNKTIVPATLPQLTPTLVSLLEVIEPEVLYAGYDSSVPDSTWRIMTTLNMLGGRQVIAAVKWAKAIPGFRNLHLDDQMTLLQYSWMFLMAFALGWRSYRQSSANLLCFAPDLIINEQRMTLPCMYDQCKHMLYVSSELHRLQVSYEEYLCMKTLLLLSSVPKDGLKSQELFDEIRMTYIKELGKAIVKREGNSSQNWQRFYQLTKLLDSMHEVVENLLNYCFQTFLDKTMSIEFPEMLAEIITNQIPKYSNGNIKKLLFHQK
# UniProt P04799: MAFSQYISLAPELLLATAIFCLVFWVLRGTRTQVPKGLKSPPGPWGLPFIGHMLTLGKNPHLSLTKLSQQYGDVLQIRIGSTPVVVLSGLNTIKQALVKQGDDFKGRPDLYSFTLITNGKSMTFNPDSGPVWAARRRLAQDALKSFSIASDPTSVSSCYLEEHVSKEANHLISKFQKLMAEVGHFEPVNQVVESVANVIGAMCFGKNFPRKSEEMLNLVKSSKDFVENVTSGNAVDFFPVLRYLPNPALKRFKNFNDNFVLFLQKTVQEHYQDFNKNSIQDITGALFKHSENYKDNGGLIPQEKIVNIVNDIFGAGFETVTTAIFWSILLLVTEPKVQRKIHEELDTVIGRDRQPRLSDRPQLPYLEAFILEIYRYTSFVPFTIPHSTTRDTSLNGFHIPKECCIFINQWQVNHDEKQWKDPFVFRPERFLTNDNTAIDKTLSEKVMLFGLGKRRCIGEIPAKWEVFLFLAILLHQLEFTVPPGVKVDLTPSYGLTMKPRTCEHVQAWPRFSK
# UniProt Q98867: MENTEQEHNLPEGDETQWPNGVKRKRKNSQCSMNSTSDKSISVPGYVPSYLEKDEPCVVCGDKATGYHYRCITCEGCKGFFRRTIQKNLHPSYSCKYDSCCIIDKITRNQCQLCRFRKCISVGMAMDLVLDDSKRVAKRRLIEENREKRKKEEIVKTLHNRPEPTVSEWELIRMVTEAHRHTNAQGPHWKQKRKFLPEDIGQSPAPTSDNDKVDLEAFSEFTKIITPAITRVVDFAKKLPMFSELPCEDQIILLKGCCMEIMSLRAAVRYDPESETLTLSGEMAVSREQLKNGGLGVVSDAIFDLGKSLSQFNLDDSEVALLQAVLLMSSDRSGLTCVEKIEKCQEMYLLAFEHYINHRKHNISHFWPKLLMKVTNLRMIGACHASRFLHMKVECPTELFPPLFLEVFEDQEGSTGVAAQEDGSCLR
# UniProt P17706: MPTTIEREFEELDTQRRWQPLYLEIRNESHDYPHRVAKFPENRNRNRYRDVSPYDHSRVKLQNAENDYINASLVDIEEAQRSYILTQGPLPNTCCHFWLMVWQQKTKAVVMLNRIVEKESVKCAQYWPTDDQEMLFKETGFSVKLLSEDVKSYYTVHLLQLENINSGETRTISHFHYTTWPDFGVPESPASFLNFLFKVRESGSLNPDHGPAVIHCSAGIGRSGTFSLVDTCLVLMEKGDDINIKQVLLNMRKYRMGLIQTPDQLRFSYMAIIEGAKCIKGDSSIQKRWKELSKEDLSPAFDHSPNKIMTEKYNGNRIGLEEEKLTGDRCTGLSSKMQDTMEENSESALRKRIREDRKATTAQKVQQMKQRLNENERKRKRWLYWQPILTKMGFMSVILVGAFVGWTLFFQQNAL
# UniProt Q92731, whole entry, looked up: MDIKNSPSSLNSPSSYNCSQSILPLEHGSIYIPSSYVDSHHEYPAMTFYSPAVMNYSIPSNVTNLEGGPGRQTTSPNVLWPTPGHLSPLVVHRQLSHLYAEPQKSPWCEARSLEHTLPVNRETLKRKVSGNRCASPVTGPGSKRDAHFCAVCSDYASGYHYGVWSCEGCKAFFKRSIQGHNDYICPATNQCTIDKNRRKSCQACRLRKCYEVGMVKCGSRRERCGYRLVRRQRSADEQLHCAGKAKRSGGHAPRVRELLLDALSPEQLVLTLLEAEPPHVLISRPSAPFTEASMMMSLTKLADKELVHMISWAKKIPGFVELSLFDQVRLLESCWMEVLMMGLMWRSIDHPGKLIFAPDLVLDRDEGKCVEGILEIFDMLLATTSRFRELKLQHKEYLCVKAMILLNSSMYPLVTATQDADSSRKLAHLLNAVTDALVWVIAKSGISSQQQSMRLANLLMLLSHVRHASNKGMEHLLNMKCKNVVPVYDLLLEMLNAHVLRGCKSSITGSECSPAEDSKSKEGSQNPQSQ
# UniProt P29476, whole entry, looked up: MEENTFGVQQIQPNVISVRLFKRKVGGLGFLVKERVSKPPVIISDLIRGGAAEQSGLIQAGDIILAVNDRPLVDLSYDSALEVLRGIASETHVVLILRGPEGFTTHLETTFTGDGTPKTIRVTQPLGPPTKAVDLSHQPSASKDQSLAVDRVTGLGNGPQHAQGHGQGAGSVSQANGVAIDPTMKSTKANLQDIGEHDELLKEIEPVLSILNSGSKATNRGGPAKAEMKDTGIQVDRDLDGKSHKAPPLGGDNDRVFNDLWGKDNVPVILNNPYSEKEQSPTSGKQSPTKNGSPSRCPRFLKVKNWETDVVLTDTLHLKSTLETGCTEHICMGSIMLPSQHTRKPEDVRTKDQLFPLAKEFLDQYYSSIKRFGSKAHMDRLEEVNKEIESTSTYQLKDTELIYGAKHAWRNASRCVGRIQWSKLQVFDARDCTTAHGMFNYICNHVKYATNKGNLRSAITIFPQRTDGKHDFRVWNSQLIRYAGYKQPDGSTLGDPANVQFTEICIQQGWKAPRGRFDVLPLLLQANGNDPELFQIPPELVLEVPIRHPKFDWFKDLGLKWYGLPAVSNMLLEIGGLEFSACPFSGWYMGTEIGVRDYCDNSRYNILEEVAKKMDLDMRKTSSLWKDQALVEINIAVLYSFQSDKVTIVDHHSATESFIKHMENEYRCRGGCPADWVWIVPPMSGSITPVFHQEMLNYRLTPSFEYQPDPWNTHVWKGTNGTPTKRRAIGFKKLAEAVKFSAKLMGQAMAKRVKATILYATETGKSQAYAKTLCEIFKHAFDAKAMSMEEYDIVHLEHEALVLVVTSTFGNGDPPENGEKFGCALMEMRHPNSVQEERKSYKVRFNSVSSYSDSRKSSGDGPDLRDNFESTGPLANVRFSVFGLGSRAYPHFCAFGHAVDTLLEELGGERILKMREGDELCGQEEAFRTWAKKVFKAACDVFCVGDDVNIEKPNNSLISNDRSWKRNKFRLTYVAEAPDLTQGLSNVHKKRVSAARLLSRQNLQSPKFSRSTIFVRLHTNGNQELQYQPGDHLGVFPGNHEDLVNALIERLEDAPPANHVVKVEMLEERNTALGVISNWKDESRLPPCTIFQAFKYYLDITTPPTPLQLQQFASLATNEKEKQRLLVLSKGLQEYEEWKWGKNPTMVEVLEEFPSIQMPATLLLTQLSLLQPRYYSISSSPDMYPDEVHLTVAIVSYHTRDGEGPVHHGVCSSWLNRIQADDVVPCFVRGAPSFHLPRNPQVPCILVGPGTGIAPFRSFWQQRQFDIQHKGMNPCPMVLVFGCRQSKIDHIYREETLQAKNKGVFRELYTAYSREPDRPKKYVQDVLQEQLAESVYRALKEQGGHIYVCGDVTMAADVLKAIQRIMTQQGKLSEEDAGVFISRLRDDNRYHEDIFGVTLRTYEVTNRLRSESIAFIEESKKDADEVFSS
# UniProt P05979, whole entry, looked up: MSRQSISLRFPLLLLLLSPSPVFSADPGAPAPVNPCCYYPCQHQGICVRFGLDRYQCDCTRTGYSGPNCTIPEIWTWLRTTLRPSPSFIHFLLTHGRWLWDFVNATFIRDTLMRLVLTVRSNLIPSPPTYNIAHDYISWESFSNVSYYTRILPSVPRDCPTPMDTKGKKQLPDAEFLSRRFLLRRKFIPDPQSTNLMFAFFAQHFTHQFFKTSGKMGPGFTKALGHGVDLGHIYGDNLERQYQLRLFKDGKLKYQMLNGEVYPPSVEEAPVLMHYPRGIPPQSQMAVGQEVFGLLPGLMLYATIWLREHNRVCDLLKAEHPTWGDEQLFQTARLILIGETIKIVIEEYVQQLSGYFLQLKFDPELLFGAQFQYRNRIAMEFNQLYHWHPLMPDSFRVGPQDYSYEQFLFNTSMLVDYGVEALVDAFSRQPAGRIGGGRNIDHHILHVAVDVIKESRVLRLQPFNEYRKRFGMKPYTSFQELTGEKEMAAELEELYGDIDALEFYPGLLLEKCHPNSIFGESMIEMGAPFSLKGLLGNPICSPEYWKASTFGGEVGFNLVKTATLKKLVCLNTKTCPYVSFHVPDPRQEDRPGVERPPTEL
# UniProt P42575: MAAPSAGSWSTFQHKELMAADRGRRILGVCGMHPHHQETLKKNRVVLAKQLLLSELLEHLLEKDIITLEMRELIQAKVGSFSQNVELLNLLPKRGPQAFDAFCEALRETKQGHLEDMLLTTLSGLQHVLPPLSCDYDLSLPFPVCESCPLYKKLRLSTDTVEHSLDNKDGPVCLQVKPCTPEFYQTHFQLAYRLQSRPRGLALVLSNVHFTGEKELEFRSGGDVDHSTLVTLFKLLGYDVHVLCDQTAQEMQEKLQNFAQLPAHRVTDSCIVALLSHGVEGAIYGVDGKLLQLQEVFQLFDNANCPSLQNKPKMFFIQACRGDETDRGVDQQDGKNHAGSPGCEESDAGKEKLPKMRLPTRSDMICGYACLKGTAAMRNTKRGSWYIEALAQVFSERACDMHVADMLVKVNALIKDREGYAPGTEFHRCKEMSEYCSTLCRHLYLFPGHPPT
# “And” between values parts separate entries of the source, which are not always exact repeats. Identical values can stand only once. This list was built around the results that the source calls inconclusive (neither active nor inactive); the mix of calls is not that of the screen. For part of these data: Potencies beside an inconclusive call are fits to weak or partial responses and may not hold up. The source made the active and inactive calls. How the source made its calls: active means hit-call score of the fitted dose curve at least 0.9, where 1 is the maximum; inconclusive means response in the unintended direction; inactive means score below 0.9.
# Tests used:
# [1] = biological target: Neuropeptide Y receptor type 2 (Homo sapiens) (UniProt P49146); test: NVS_GPCR_hNPY2: NovaScreen (NVS) G Protein-Coupled Receptor Assay for human Neuropeptide Receptor Y2 (NPY2) (AID 2283277)
# Summary of the method: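 Radioligand binding on membranes extracted from SK-N-MC cells, cell-free, read 1 h after dosing by filter-based scintillation counting. Loss of signal vs DMSO. Primary screen in duplicate at 25 uM; actives followed up in concentration-response up to 50 uM.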
# [2] = biological target: Androgen Receptor/SRC-1 Co-activator, AR (gene 367) (UniProt P10275); test: OT_AR_ARSRC1_0480: Odyssey Thera (OT) 8-hour HEK293T Protein-Complementation Assay for Androgen Receptor/SRC-1 Co-activator (AID 2283354);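 further: hits raise the complementation signal above DMSO so AC50 marks enhancers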
# Summary of the method: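 Measures AR/SRC-1 binding by Venus YFP fragment complementation in HEK293T stable lines at 8 h post-dose. Imaging quantifies the 488nm nucleus/cytoplasm ratio in ≥400 cells; DMSO defines baseline.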
# [3] = biological target: Glucocorticoid receptor (Homo sapiens) (UniProt P04150); test: NVS_NR_hGR: NovaScreen (NVS) Nuclear Receptor Binding Assay for human Glucocorticoid Receptor (GR) (AID 2283363);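 further: activity is loss of specific radioligand binding signal relative to DMSO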
# Summary of the method: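 Competitive displacement of a labelled ligand was measured on cell-free receptor preparations after 16 h exposure. Initial testing used 25 uM in duplicate with plate controls; confirmed actives went into concentration series.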
# [4] = biological target: Tyrosine-protein phosphatase non-receptor type 11 (Homo sapiens) (UniProt Q06124); test: NVS_ENZ_hPTPN11: NovaScreen (NVS) Enzymatic Assay for human Protein Tyrosine Phosphatase Non-receptor Type 11 (PTPN11) (AID 2283202)
# Summary of the method: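 Recombinant human PTPN11 activity on a fluorescent substrate, with substrate/product separated by electrophoretic mobility shift; read 0.5 h after dosing, loss of signal vs DMSO. Duplicate 25 uM screen, then concentration-response up to 50 uM.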
# [5] = biological target: human Sirtuin 1 (SIRT1), SIRT1 (gene 23411) (UniProt Q96EB6); test: NVS_ENZ_hSIRT1: NovaScreen (NVS) Enzymatic Assay for human Sirtuin 1 (SIRT1) (AID 2283219)
# Summary of the method: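 Cell-free recombinant SIRT1 with a fluorescent substrate; substrate and product separated by electrophoretic mobility shift and read by fluorescence intensity, 1 h after dosing. Primary screen at 25 uM in duplicate; hits re-run in concentration-response up to 50 uM, relative to DMSO.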
# [6] = biological target: human Norepinephrine Transporter (NET), SLC6A2 (gene 6530) (UniProt P23975); test: NVS_TR_hNET: NovaScreen (NVS) Transporter Assay for human Norepinephrine Transporter (NET) (AID 2283377);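 further: cell-free membrane protein extracted from CHO cells expressing human NET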;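 on AC50: displacement of radioligand from human NET seen as loss of scintillation signal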
# Summary of the method: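 Scintillation counts of filter-retained radioligand served as the readout, taken 1 h post-dosing in a cell-free CHO-derived system. Test chemicals ran first at 25 uM in duplicate; confirmed hits were retested across concentrations.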
# [7] = biological target: rat CYP1A2, Cyp1a2 (gene 24297) (UniProt P04799); test: NVS_ADME_rCYP1A2: NovaScreen (NVS) CYP450-related Enzyme Activity (ADME) Assay for rat CYP1A2 (AID 2283115)
# Summary of the method: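 Cell-free recombinant rat enzyme with fluorogenic substrate, read by fluorescence intensity 1 hour after dosing. Loss of signal versus acetonitrile negative control; primary screen at 10 uM in duplicate, actives followed in concentration series.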
# [8] = CCTE_Simmons_MITO_viability: CellTiter-Glo Viability Assessment for CCTE's HepG2 Seahorse XF Respirometric Screening Assay [post-hoc], Simmons Lab (AID 2284007);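 on AC50: cells exposed to chemical for 90 min before the ATP read; actives lower ATP signal relative to DMSO baseline meaning reduced viability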
# Summary of the method: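 After the Seahorse oxygen-consumption sequence (basal, FCCP, rotenone/antimycin A; 72 min total), HepG2 viability was scored as ATP content by bioluminescence. Chemicals ran at seven concentrations up to 100 uM final for 90 min.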
# AR (gene 367) = AR (gene 367) (UniProt P10275); test: ACEA_AR_antagonist_80hr: ACEA Biosciences xCELLigence Real-Time Cell Analysis on Androgen Receptor Antagonism for Proliferation (AID 2283787);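 further: 22Rv1 human prostate cancer cells with growth followed by electrical impedance; hits lower the impedance growth signal relative to DMSO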
# Summary of the method: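 Growth-kinetic antagonist readout in 22Rv1 cells, taken 80 h after continuous compound exposure. Activity fitted as signal loss relative to DMSO negative control.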
# [9] = biological target: human Androgen Receptor (AR), AR (gene 367) (UniProt P10275); test: ATG_hAR_XSP2: Attagene TRANS-FACTORIAL Multi-Species (XSP2) HepG2 Assay for human Androgen Receptor (AR) (AID 2283820)
# Summary of the method: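 HepG2 cells transiently transfected with GAL4-UAS reporter units driven by chimeric NR-Gal4 proteins, stimulated with 3 nM 6-alpha-fluorotestosterone plus 1.5 nM norgestrel. Reporter mRNA quantified 24 h after dosing by RT-PCR and capillary electrophoresis; gain-of-signal versus DMSO.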
# [10] = ATG_XTT_Cytotoxicity_XSP2: Cytotoxicity Assessment in the Attagene TRANS-FACTORIAL Multi-Species (XSP2) HepG2 Assay (AID 2283837)
# Summary of the method: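 HepG2 cells, transiently transfected with multiple reporter constructs, exposed to chemical for 24 h. Cell number assessed with XTT fluorescence read-out; loss of signal fitted relative to DMSO.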
# [11] = biological target: zebrafish Thyroid Hormone Receptor alpha (TRa), thraa (gene 30670) (UniProt Q98867); test: ATG_zfTRa_XSP1: Attagene TRANS-FACTORIAL Multi-Species (XSP1) HepG2 Assay for zebrafish Thyroid Hormone Receptor alpha (TRa) (AID 2283807)
# Summary of the method: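 HepG2 cells transiently transfected with GAL4-UAS reporter units including a zebrafish TRa–Gal4 chimera, dosed 24 h with 3 nM 6-alpha-fluorotestosterone present. Reporter mRNA quantified by RT-PCR and capillary electrophoresis; gain versus DMSO.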
# [12] = biological target: human Protein Tyrosine Phosphatase Non-receptor Type 2 (PTPN2), PTPN2 (gene 5771) (UniProt P17706); test: NVS_ENZ_hPTPN2: NovaScreen (NVS) Enzymatic Assay for human Protein Tyrosine Phosphatase Non-receptor Type 2 (PTPN2) (AID 2283207)
# Summary of the method: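 Cell-free recombinant enzyme with fluorescent substrate, product separated by electrophoretic mobility shift; read 1 h after dosing. Primary screen single concentration (25 uM) in duplicate; actives followed in concentration series; loss of signal versus DMSO.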
# [13] = biological target: Estrogen receptor (Homo sapiens) + Estrogen receptor beta (Homo sapiens) (UniProt P03372+Q92731); test: OT_ER_ERaERb_1440: Odyssey Thera (OT) 24-hour HEK293T Protein-Complementation Assay for Estrogen Receptor-alpha/-beta Homodimer (AID 2283356);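 further: heteromer of ER alpha and ER beta binding domains; hits raise reporter fluorescence and both agonists and antagonists give an increase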
# Summary of the method: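 24 h exposure; HEK293T PCA cells with ERα/ERβ LBD fragments; signal rise in nuclear or whole-cell fluorescence over vehicle.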
# [14] = biological target: human Leukotriene B4 Receptor 1 (LTB4-BLT1), LTB4R (gene 1241) (UniProt Q15722); test: NVS_GPCR_hLTB4_BLT1: NovaScreen (NVS) G Protein-Coupled Receptor Assay for human Leukotriene B4 Receptor 1 (LTB4-BLT1) (AID 2283271)
# Summary of the method: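 Radioligand displacement binding on receptor extracted from human neutrophils, cell-free, 1 h after dosing; filter-based scintillation counting. Primary screen in duplicate at 25 uM, actives retested in concentration-response up to 50 uM; loss of signal versus DMSO.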
# [15] = biological target: rat Constitutive Nitric Oxide Synthase (CNOS), Nos1 (gene 24598) (UniProt P29476); test: NVS_ENZ_rCNOS: NovaScreen (NVS) Enzymatic Assay for rat Constitutive Nitric Oxide Synthase (CNOS) (AID 2283236)
# Summary of the method: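 Enzyme activity in rat brain membrane preparation, read 1 h after dosing by filter-based radiometric scintillation counting. Primary screen in duplicate at 25 uM; actives (e.g., ≥30% inhibition) then run in concentration-response up to 50 uM.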
# [16] = biological target: sheep Cyclooxygenase-1 (Cox1), PTGS1 (gene 443551) (UniProt P05979); test: NVS_ENZ_oCOX1: NovaScreen (NVS) Enzymatic Assay for sheep Cyclooxygenase-1 (Cox1) (AID 2283239);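 further: actives reduce cyclooxygenase activity so potencies are for inhibitors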
# Summary of the method: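 Tested in duplicate at 25 uM, then in concentration series if active, against seminal vesicle extract from sheep. Enzyme activity was measured colorimetrically at 0.66 hour and normalised to DMSO.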
# [17] = biological target: human Caspase 2 (CASP2), CASP2 (gene 835) (UniProt P42575); test: NVS_ENZ_hCASP2: NovaScreen (NVS) Enzymatic Assay for human Caspase 2 (CASP2) (AID 2283135)
# Summary of the method: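 E. coli-expressed enzyme in a cell-free protease assay, fluorescence read 1 h after dosing. Compounds at 25 uM in duplicate, with concentration-response up to 50 uM for hits; loss of signal against DMSO baseline.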
compound,measurement,setting,value
C=C(C)[C@H]1Cc2c(ccc3c2O[C@@H]2COc4cc(OC)c(OC)cc4[C@@H]2C3=O)O1,AC50,[1],inconclusive: 25 µM
same,AC50,[2],active: 0.973 µM
same,AC50,[3],active: 0.425 µM
C=CCC1=C(C)[C@@H](OC(=O)[C@@H]2[C@@H](C=C(C)C)C2(C)C)CC1=O,AC50,[4],inconclusive: 25 µM
same,AC50,[1],inconclusive: 25 µM
ClC1C(Cl)C(Cl)C(Cl)C(Cl)C1Cl (stereo not drawn),outcome,[5],inactive
same,AC50,[6],inconclusive: 25 µM
CC1=C(C(=O)Nc2ccccc2)SCCO1,outcome,[7],inactive
same,AC50,[8],inconclusive: 50 µM
CCCCC(CC)COC(=O)c1ccc(C(=O)OCC(CC)CCCC)c(C(=O)OCC(CC)CCCC)c1 (stereo not drawn),AC50,[5],inconclusive: 1.93 µM
same,AC50,AR (gene 367),inconclusive: 0.000426 µM
same,AC50,[9],inconclusive: 100 µM
Nc1ccc([N+](=O)[O-])cc1,outcome,[6],inactive
CCCC1COC(Cn2cncn2)(c2ccc(Cl)cc2Cl)O1 (stereo not drawn),AC50,[9],inconclusive: 3.74 µM
CCOC(=O)C(O)(c1ccc(Cl)cc1)c1ccc(Cl)cc1,AC50,[6],active: 15.5 µM
same,AC50,[9],inconclusive: 6.42 µM and inconclusive: 1.83 µM
same,AC50,[10],active: 100 µM
CSC(=O)c1c(C(F)F)nc(C(F)(F)F)c(C(=O)SC)c1CC(C)C,AC50,[11],inconclusive: 1.74 µM
CCOC1Oc2ccc(OS(C)(=O)=O)cc2C1(C)C (stereo not drawn),outcome,[2],inactive
Cc1nc(N(C)C)nc(OC(=O)N(C)C)c1C,AC50,[12],inconclusive: 1.8 µM
same,outcome,[13],inactive
CCOP(=S)(OCC)O/N=C(\C#N)c1ccccc1,AC50,[10],inconclusive: 0.0866 µM
COC(=O)N(C(=O)N1CO[C@@]2(C(=O)OC)Cc3cc(Cl)ccc3C2=N1)c1ccc(OC(F)(F)F)cc1,outcome,[2],inactive
O=C(O)c1nc(Cl)ccc1Cl,AC50,[12],inconclusive: 25 µM
O=C(Nc1ccccc1)Nc1ccnc(Cl)c1,outcome,[7],inactive
same,AC50,[14],inconclusive: 46 µM
CCCCOC(=O)c1ccccc1C(=O)O,AC50,[4],inconclusive: 25 µM
same,AC50,[15],inconclusive: 25 µM
same,outcome,[16],inactive
O=C(O)c1cc(Oc2ccc(C(F)(F)F)cc2Cl)ccc1[N+](=O)[O-],outcome,[8],inactive
Clc1ccc(C(c2ccc(Cl)cc2)C(Cl)(Cl)Cl)cc1,AC50,[5],active: 25 µM
same,AC50,[11],inconclusive: 26.4 µM
ClC1=C(Cl)[C@]2(Cl)[C@@H]3[C@H]4C[C@H]([C@@H]5O[C@H]45)[C@@H]3[C@@]1(Cl)C2(Cl)Cl,AC50,[17],inconclusive: 25 µM
